Reference: patent US20130338130A1 (priority 2009, published 2013)
Where two headings read alike, the source gives them in different places. The source gives many values for each of these; only a part stands here.

Columns and labels:
[1] = tested on: ATCC strain 43300 Staphylococcus aureus; settings: 24 hours
[2] = tested on: ATCC strain 43300 Staphylococcus aureus; test: MRSA survival in MSM, DMSO and oxacillin, 48 hours (Example 2)

Structure (SMILES): CS(C)(=O)=O [MSM, Methylsulfonylmethane]
- survival, Average Log ([1]; 12 μg/ml methicillin + MSM (% in label), listed as 5% MSM): 2.9 Log
- survival, Average Log ([1]; 12 μg/ml methicillin + MSM (% in label), listed as 6% MSM): 2.6 Log
- survival, Average Log ([1]; 12 μg/ml methicillin + MSM (% in label), listed as 7% MSM): 2.7 Log
- survival, Average Log ([1]; 12 μg/ml methicillin + MSM (% in label), listed as 8% MSM): 3.0 Log
- survival, Average Log ([1]; 12 μg/ml methicillin + MSM (% in label), listed as 9% MSM): 3.0 Log
- survival, Average Log ([1]; 12 μg/ml methicillin + MSM (% in label), listed as 10% MSM): 3.1 Log
- survival, Average Log ([1]; 12 μg/ml methicillin + MSM (% in label), listed as 11% MSM): 3.3 Log
- survival, Average Log ([1]; 12 μg/ml methicillin + MSM (% in label), listed as 12% MSM): 3.5 Log
- survival, Average Log ([1]; 12 μg/ml methicillin + MSM (% in label), listed as 13% MSM): 3.5 Log
- survival, Average Log ([1]; 12 μg/ml methicillin + MSM (% in label), listed as 14% MSM): 3.9 Log
- survival, Average Log ([1]; 12 μg/ml methicillin + MSM (% in label), listed as 15% MSM): 3.8 Log
- survival, Average Log ([1]; 12 μg/ml methicillin + MSM (% in label), listed as 16% MSM): 3.0 Log
- survival, Average Log ([1]; 30 μg/ml methicillin + MSM (% in label), listed as 5% MSM): 2.6 Log
- survival, Average Log ([1]; 30 μg/ml methicillin + MSM (% in label), listed as 6% MSM): 2.4 Log
- survival, Average Log ([1]; 30 μg/ml methicillin + MSM (% in label), listed as 7% MSM): 2.5 Log
- survival, Average Log ([1]; 30 μg/ml methicillin + MSM (% in label), listed as 8% MSM): 3.0 Log
- survival, Average Log ([1]; 30 μg/ml methicillin + MSM (% in label), listed as 9% MSM): 3.1 Log
- survival, Average Log ([1]; 30 μg/ml methicillin + MSM (% in label), listed as 10% MSM): 3.1 Log
- survival, Average Log ([1]; 30 μg/ml methicillin + MSM (% in label), listed as 11% MSM): 3.5 Log
- survival, Average Log ([1]; 30 μg/ml methicillin + MSM (% in label), listed as 12% MSM): 3.5 Log
- survival, Average Log ([1]; 30 μg/ml methicillin + MSM (% in label), listed as 13% MSM): 3.8 Log
- survival, Average Log ([1]; 30 μg/ml methicillin + MSM (% in label), listed as 14% MSM): 3.8 Log
- survival, Average Log ([1]; 30 μg/ml methicillin + MSM (% in label), listed as 15% MSM): 3.9 Log
- survival, Average Log ([1]; 30 μg/ml methicillin + MSM (% in label), listed as 16% MSM): 4.0 Log
- survival, Average Log ([1]; 60 μg/ml methicillin + MSM (% in label), listed as 5% MSM): 2.9 Log
- survival, Average Log ([1]; 60 μg/ml methicillin + MSM (% in label), listed as 6% MSM): 2.6 Log
- survival, Average Log ([1]; 60 μg/ml methicillin + MSM (% in label), listed as 7% MSM): 2.8 Log
- survival, Average Log ([1]; 60 μg/ml methicillin + MSM (% in label), listed as 8% MSM): 3.0 Log
- survival, Average Log ([1]; 60 μg/ml methicillin + MSM (% in label), listed as 9% MSM): 3.2 Log
- survival, Average Log ([1]; 60 μg/ml methicillin + MSM (% in label), listed as 10% MSM): 3.3 Log
- survival, Average Log ([1]; 60 μg/ml methicillin + MSM (% in label), listed as 11% MSM): 3.6 Log
- survival, Average Log ([1]; 60 μg/ml methicillin + MSM (% in label), listed as 12% MSM): 3.6 Log
- survival, Average Log ([1]; 60 μg/ml methicillin + MSM (% in label), listed as 13% MSM): 3.8 Log
- survival, Average Log ([1]; 60 μg/ml methicillin + MSM (% in label), listed as 14% MSM): 3.9 Log
- survival, Average Log ([1]; 60 μg/ml methicillin + MSM (% in label), listed as 15% MSM): 3.9 Log
- survival, Average Log ([1]; 60 μg/ml methicillin + MSM (% in label), listed as 16% MSM): 3.9 Log
- survival (Log cfu/ml) ([2]; (MA) 6 μg/ml oxacillin + MSM (% MSM in label), 25° C., inoculum Log=7.49, listed as 5% MSM): 6.7 Log cfu/ml
- survival (Log cfu/ml) ([2]; (MA) 6 μg/ml oxacillin + MSM (% MSM in label), 25° C., inoculum Log=7.49, listed as 6% MSM): 6.6 Log cfu/ml
- survival (Log cfu/ml) ([2]; (MA) 6 μg/ml oxacillin + MSM (% MSM in label), 25° C., inoculum Log=7.49, listed as 7% MSM): 6.8 Log cfu/ml
- survival (Log cfu/ml) ([2]; (MA) 6 μg/ml oxacillin + MSM (% MSM in label), 25° C., inoculum Log=7.49, listed as 8% MSM): 5.9 Log cfu/ml
- survival (Log cfu/ml) ([2]; (MA) 6 μg/ml oxacillin + MSM (% MSM in label), 25° C., inoculum Log=7.49, listed as 9% MSM): 5.5 Log cfu/ml
- survival (Log cfu/ml) ([2]; (MA) 6 μg/ml oxacillin + MSM (% MSM in label), 25° C., inoculum Log=7.49, listed as 10% MSM): 5.1 Log cfu/ml
- survival (Log cfu/ml) ([2]; (MA) 6 μg/ml oxacillin + MSM (% MSM in label), 25° C., inoculum Log=7.49, listed as 11% MSM): 4.8 Log cfu/ml
- survival (Log cfu/ml) ([2]; (MA) 6 μg/ml oxacillin + MSM (% MSM in label), 25° C., inoculum Log=7.49, listed as 12% MSM): 4.6 Log cfu/ml
- survival (Log cfu/ml) ([2]; (MA) 6 μg/ml oxacillin + MSM (% MSM in label), 25° C., inoculum Log=7.49, listed as 13% MSM): 4.6 Log cfu/ml
- survival (Log cfu/ml) ([2]; (MA) 6 μg/ml oxacillin + MSM (% MSM in label), 25° C., inoculum Log=7.49, listed as 14% MSM): 4.8 Log cfu/ml
- survival (Log cfu/ml) ([2]; (MA) 6 μg/ml oxacillin + MSM (% MSM in label), 25° C., inoculum Log=7.49, listed as 15% MSM): 4.9 Log cfu/ml
- survival (Log cfu/ml) ([2]; (MA) 6 μg/ml oxacillin + MSM (% MSM in label), 25° C., inoculum Log=7.49, listed as 16% MSM): 5.1 Log cfu/ml
- survival (Log cfu/ml) ([2]; (MDA) 6 μg/ml oxacillin + MSM (% in label) + 1% DMSO, listed as 5% MSM): 6.2 Log cfu/ml
- survival (Log cfu/ml) ([2]; (MDA) 6 μg/ml oxacillin + MSM (% in label) + 1% DMSO, listed as 6% MSM): 6.1 Log cfu/ml
- survival (Log cfu/ml) ([2]; (MDA) 6 μg/ml oxacillin + MSM (% in label) + 1% DMSO, listed as 7% MSM): 5.9 Log cfu/ml
- survival (Log cfu/ml) ([2]; (MDA) 6 μg/ml oxacillin + MSM (% in label) + 1% DMSO, listed as 8% MSM): 5.8 Log cfu/ml
- survival (Log cfu/ml) ([2]; (MDA) 6 μg/ml oxacillin + MSM (% in label) + 1% DMSO, listed as 9% MSM): 5.9 Log cfu/ml
- survival (Log cfu/ml) ([2]; (MDA) 6 μg/ml oxacillin + MSM (% in label) + 1% DMSO, listed as 10% MSM): 5.8 Log cfu/ml
- survival (Log cfu/ml) ([2]; (MDA) 6 μg/ml oxacillin + MSM (% in label) + 1% DMSO, listed as 11% MSM): 5.8 Log cfu/ml
- survival (Log cfu/ml) ([2]; (MDA) 6 μg/ml oxacillin + MSM (% in label) + 1% DMSO, listed as 12% MSM): 5.8 Log cfu/ml
- survival (Log cfu/ml) ([2]; (MDA) 6 μg/ml oxacillin + MSM (% in label) + 1% DMSO, listed as 13% MSM): 5.8 Log cfu/ml
- survival (Log cfu/ml) ([2]; (MDA) 6 μg/ml oxacillin + MSM (% in label) + 1% DMSO, listed as 14% MSM): 5.7 Log cfu/ml
- survival (Log cfu/ml) ([2]; (MDA) 6 μg/ml oxacillin + MSM (% in label) + 1% DMSO, listed as 15% MSM): 5.7 Log cfu/ml
- survival (Log cfu/ml) ([2]; (MDA) 6 μg/ml oxacillin + MSM (% in label) + 1% DMSO, listed as 16% MSM): 5.5 Log cfu/ml
